Experimental data: patent US20170227547A1 (Hoffmann-La Roche, published 2017)
No constants are given. Whether binding was seen depends on the method and setting. Some results given as binding are weak or reduced against the parent protein; the word gives no strength.

How the values were obtained:
human IL-12 [1] = target: T1, human IL-12 (human, UniProt P29459 23-219; P29460 23-328); assay: SPR, IL-12
T1 construct: also called interleukin 12
T1 sequence (looked up) 1: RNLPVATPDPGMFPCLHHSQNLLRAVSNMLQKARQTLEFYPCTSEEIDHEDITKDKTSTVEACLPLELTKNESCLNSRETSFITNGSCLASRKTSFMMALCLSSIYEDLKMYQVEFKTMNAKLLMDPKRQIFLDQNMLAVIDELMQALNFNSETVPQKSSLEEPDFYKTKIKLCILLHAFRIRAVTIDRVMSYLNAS
T1 sequence (looked up) 2: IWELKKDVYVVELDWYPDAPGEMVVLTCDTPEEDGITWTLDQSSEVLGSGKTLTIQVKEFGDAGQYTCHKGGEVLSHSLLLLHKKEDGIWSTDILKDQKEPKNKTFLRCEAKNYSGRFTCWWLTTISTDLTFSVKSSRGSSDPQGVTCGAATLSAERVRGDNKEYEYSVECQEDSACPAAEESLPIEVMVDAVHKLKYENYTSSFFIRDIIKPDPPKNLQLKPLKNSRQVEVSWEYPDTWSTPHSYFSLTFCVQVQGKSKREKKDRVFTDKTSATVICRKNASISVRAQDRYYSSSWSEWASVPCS

human IL-12 [2] = target: T1, human IL-12; assay: IL-12 ELISA, absorbance against antibody concentration
human IL-12 [3] = target: T1, human IL-12; assay: IL-12 ELISA

Measured: binding

B1: Briakinumab (antibody, V domains shown)
VH: QVQLVESGGGVVQPGRSLRLSCAASGFTFSSYGMHWVRQAPGKGLEWVAFIRYDGSNKYYADSVKGRFTISRDNSKNTLYLQMNSLRAEDTAVYYCKTHGSHDNWGQGTMVTVSS
VL: QSVLTQPPSVSGAPGQRVTISCSGSRSNIGSNTVKWYQQLPGTAPKLLIYYNDQRPSGVPDRFSGSKSGTSASLAITGLQAEDEADYYCQSYDRYTHPALLFGTGTKVTVLG
notes: Fully human IgG1; also called ABT 874; J 695
binds: human IL-12 [1] | human IL-12 [2] | human IL-12 [3]

B2: mAb 2 (antibody, V domains shown)
VH: QVQLVESGGGVVQPGRSLRLSCAASGFTFSSYGMHWVRQAPGKGLEWVAFIRYDGSNKYYADSVKGRFTISRDNSKNTLYLQMNSLRAEDTAVYYCKTHGSHDNWGQGTMVTVSS
VL: QSVLTQPPSVSGAPGQRVTISCSGSRSNIGSNTVKWYQQLPGTAPKLLIYYNDQRPSGVPDRFSGSKSGTSASLAITGLQAEDEADYYCQSYDRYTHPALLFGTGTKVTVLG
notes: Fv domain of Briakinumab on the Ustekinumab constant domains (IgG1)
binds: human IL-12 [1] | human IL-12 [2] | human IL-12 [3]
